Measured values as given in PubChem BioAssay AID194 (DTP/NCI, 2004).
The list is a part of this screen's results and no random one: it is rich in T/C values a quarter to a half above the control, in often repeated tests (any T/C) and in doses without a T/C. Further doses and runs are listed elsewhere. T/C gives the treated animals as a percentage of the vehicle group. Some entries give survivors of the animals treated and no T/C: the source holds a T/C of zero for them, seemingly a mark for toxic or unscored doses. Some doses without a T/C left all or most animals alive at the check, yet need not have been tolerated: the source hardly ever lists a survival T/C far under the control, and the zero likely stands for such cases as well. Counts of survivors are from the toxicity check (mostly the fifth day) where no day follows; animals may have died later. Schedule codes are those of the source, taken here to give the interval after Q, in days (D) or hours (H), and the number of doses after X. Some entries hold several experiments; the results are listed from low to high. Some molecules as drawn cover several salts, stereoisomers or complexes of the source; a dose is that of the sample tested. Marks such as (2×) stand for listed records that agree. For survival time, this PubChem deposit counts one and a half times the control or more as active, and values a quarter to a half above the control carry no call in these data; other NCI protocols may use other cut-offs.

Tested on: BDF1 mice, B16 melanoma s.c., survival/tumor T/C
Test: NCI In Vivo Anticancer Drug Screen. Data for tumor model B16 Melanoma (subcutaneous) in B6D2F1 (BDF1) mice
Experimental: The antitumor activity of compounds was measured in mice bearing transplantable tumors. Survival or tumor size were measured and the results are expressed as the measurement made in the treated group (T) divided by the measurement made in the vehicle treated control group (C). The tumor model used in this assay is B16 Melanoma (subcutaneous) in B6D2F1 (BDF1) mice

[1] = T/C endpoint: median survival time, dose: 25.0 mg/kg/injection, schedule: Q01DX009 (ip), vehicle: Klucel (hydroxypropylcellulose) (HPC), higher T/C = longer survival
[2] = T/C endpoint: median survival time, dose: 50.0 mg/kg/injection, schedule: Q01DX009 (ip), vehicle: Klucel (hydroxypropylcellulose) (HPC), higher T/C = longer survival
[3] = T/C endpoint: median survival time, dose: 100.0 mg/kg/injection, schedule: Q01DX009 (ip), vehicle: Klucel (hydroxypropylcellulose) (HPC), higher T/C = longer survival
[4] = T/C endpoint: median survival time, dose: 100.0 mg/kg/injection, schedule: Q01DX009 (ip), vehicle: saline with Tween-80, higher T/C = longer survival
[5] = T/C endpoint: median survival time, dose: 200.0 mg/kg/injection, schedule: Q01DX009 (ip), vehicle: Klucel (hydroxypropylcellulose) (HPC), higher T/C = longer survival
[6] = T/C endpoint: median survival time, dose: 160.0 mg/kg/injection, schedule: Q01DX009 (ip), vehicle: water, higher T/C = longer survival
[7] = T/C endpoint: median survival time, dose: 50.0 mg/kg/injection, schedule: Q01DX009 (ip), vehicle: saline, higher T/C = longer survival
[8] = T/C endpoint: median survival time, dose: 100.0 mg/kg/injection, schedule: Q01DX009 (ip), vehicle: saline, higher T/C = longer survival

CC(CN1CC(=O)NC(=O)C1)N1CC(=O)NC(=O)C1 (stereo unspecified)
T/C (T/C endpoint: median survival time, dose: 8.0 mg/kg/injection, schedule: Q01DX009 (ip), vehicle: Klucel (hydroxypropylcellulose) (HPC), higher T/C = longer survival): 126 % of control
T/C (T/C endpoint: median survival time, dose: 16.0 mg/kg/injection, schedule: Q01DX009 (ip), vehicle: Klucel (hydroxypropylcellulose) (HPC), higher T/C = longer survival): 144 % of control
T/C (T/C endpoint: median survival time, dose: 32.0 mg/kg/injection, schedule: Q01DX009 (ip), vehicle: Klucel (hydroxypropylcellulose) (HPC), higher T/C = longer survival): 127 and 132 % of control
survivor count (T/C endpoint: median survival time, dose: 64.0 mg/kg/injection, schedule: Q01DX009 (ip), vehicle: Klucel (hydroxypropylcellulose) (HPC), higher T/C = longer survival): 10 of 10
T/C (T/C endpoint: median survival time, dose: 100.0 mg/kg/injection, schedule: Q04DX003 (ip), vehicle: saline, higher T/C = longer survival): 132 % of control
survivor count (T/C endpoint: median survival time, dose: 128.0 mg/kg/injection, schedule: Q01DX009 (ip), vehicle: Klucel (hydroxypropylcellulose) (HPC), higher T/C = longer survival): 10 of 10
survivor count (T/C endpoint: median survival time, dose: 240.0 mg/kg/injection, schedule: Q01DX009 (ip), vehicle: saline, higher T/C = longer survival): 10 of 10
survivor count (T/C endpoint: median survival time, dose: 800.0 mg/kg/injection, schedule: Q04DX003 (ip), vehicle: saline, higher T/C = longer survival): 10 of 10

CS(=O)(=O)OCCCCOS(C)(=O)=O
survivor count (T/C endpoint: median survival time, dose: 12.5 mg/kg/injection, schedule: Q01DX009 (ip), vehicle: Klucel (hydroxypropylcellulose) (HPC), higher T/C = longer survival): 6 of 6
T/C [1]: 101, 111, 114 % of control (2×)
survivor count [1]: 6 of 6
T/C [2]: 102, 104, 126 % of control
survivor count [2]: 5 of 6 and 6 of 6
survivor count [3]: 0 of 6, 1 of 6, 2 of 6
survivor count [4]: 2 of 6
survivor count [5]: 0 of 6
survivor count (T/C endpoint: median survival time, dose: 200.0 mg/kg/injection, schedule: Q01DX009 (ip), vehicle: saline with Tween-80, higher T/C = longer survival): 0 of 6

CN(C)CCCN1c2ccccc2Sc2ccc(Cl)cc21
survivor count (T/C endpoint: median survival time, dose: 0.25 mg/kg/injection, schedule: Q01DX009 (ip), vehicle: saline, higher T/C = longer survival): 10 of 10

N/C(=N\Cl)C(Cl)(Cl)Cl
survivor count (T/C endpoint: median survival time, dose: 25.0 mg/kg/injection, schedule: Q01DX009 (ip), vehicle: saline with Tween-80, higher T/C = longer survival): 10 of 10

O=C(O)CCC(=O)O
survivor count (T/C endpoint: median survival time, dose: 10.0 mg/kg/injection, schedule: Q01DX009 (ip), vehicle: water, higher T/C = longer survival): 10 of 10
T/C (T/C endpoint: median survival time, dose: 20.0 mg/kg/injection, schedule: Q01DX009 (ip), vehicle: water, higher T/C = longer survival): 133 and 137 % of control
T/C (T/C endpoint: median survival time, dose: 80.0 mg/kg/injection, schedule: Q01DX009 (ip), vehicle: water, higher T/C = longer survival): 141 % of control
T/C [6]: 133 % of control
survivor count [6]: 7 of 8
survivor count (T/C endpoint: median survival time, dose: 320.0 mg/kg/injection, schedule: Q01DX009 (ip), vehicle: water, higher T/C = longer survival): 0 of 10 and 7 of 10
survivor count (T/C endpoint: median survival time, dose: 640.0 mg/kg/injection, schedule: Q01DX009 (ip), vehicle: water, higher T/C = longer survival): 0 of 10 (2×)

NCCc1ccc(O)c(O)c1
survivor count (T/C endpoint: median survival time, dose: 75.0 mg/kg/injection, schedule: Q01DX009 (ip), vehicle: saline, higher T/C = longer survival): 6 of 10
survivor count (T/C endpoint: median survival time, dose: 150.0 mg/kg/injection, schedule: Q01DX009 (ip), vehicle: saline, higher T/C = longer survival): 6 of 10
survivor count (T/C endpoint: median survival time, dose: 300.0 mg/kg/injection, schedule: Q01DX009 (ip), vehicle: saline, higher T/C = longer survival): 8 of 10
survivor count (T/C endpoint: median survival time, dose: 600.0 mg/kg/injection, schedule: Q01DX009 (ip), vehicle: saline, higher T/C = longer survival): 8 of 10

COC(=O)C[C@](O)(CCCC(C)(C)O)C(=O)O[C@@H]1C(OC)=C[C@]23CCCN2CCc2cc4c(cc2[C@H]13)OCO4
survivor count (T/C endpoint: median survival time, dose: 0.12 mg/kg/injection, schedule: Q01DX009 (ip), vehicle: acid diluted with saline, higher T/C = longer survival): 9 of 10
T/C (T/C endpoint: median survival time, dose: 1.0 mg/kg/injection, schedule: Q01DX009 (ip), vehicle: acid diluted with saline, higher T/C = longer survival): 132 % of control
T/C (T/C endpoint: median survival time, dose: 2.0 mg/kg/injection, schedule: Q01DX009 (ip), vehicle: acid diluted with saline, higher T/C = longer survival): 137 % of control
survivor count (T/C endpoint: median survival time, dose: 2.3 mg/kg/injection, schedule: Q01DX009 (ip), vehicle: acid diluted with saline, higher T/C = longer survival): 9 of 10
survivor count (T/C endpoint: median survival time, dose: 4.0 mg/kg/injection, schedule: Q01DX009 (ip), vehicle: acid diluted with saline, higher T/C = longer survival): 5 of 10

O=NN(CCF)C(=O)NC1C(O)CCCC1O (stereo unspecified)
survivor count (T/C endpoint: median survival time, dose: 24.0 mg/kg/injection, schedule: Q01DX007 (ip), vehicle: water, higher T/C = longer survival): 2 of 10 on day 55

C[C@]12C=CC(=O)C=C1CC[C@@H]1[C@@H]2C(=O)C[C@@]2(C)[C@H]1CC[C@]2(O)C(=O)CO
T/C (T/C endpoint: median survival time, dose: 50.0 mg/kg/injection, schedule: Q01DX009 (ip), vehicle: saline with Tween-80, higher T/C = longer survival): 148 % of control
T/C [7]: 125 % of control
survivor count [7]: 6 of 6
T/C [3]: 129 and 139 % of control
T/C [4]: 146 % of control
T/C [8]: 129 % of control
survivor count [8]: 6 of 6
T/C [5]: 149 % of control
survivor count [5]: 6 of 6
survivor count (T/C endpoint: median survival time, dose: 200.0 mg/kg/injection, schedule: Q01DX009 (ip), vehicle: saline, higher T/C = longer survival): 4 of 6 and 6 of 6
survivor count (T/C endpoint: median survival time, dose: 400.0 mg/kg/injection, schedule: Q01DX009 (ip), vehicle: Klucel (hydroxypropylcellulose) (HPC), higher T/C = longer survival): 5 of 6 and 6 of 6
survivor count (T/C endpoint: median survival time, dose: 400.0 mg/kg/injection, schedule: Q01DX009 (ip), vehicle: saline with Tween-80, higher T/C = longer survival): 6 of 6
survivor count (T/C endpoint: median survival time, dose: 400.0 mg/kg/injection, schedule: Q01DX009 (ip), vehicle: saline, higher T/C = longer survival): 6 of 6
survivor count (T/C endpoint: median tumor weight (est.), dose: 400.0 mg/kg/injection, schedule: Q01DX009 (ip), vehicle: Klucel (hydroxypropylcellulose) (HPC), higher T/C = larger tumour): 3 of 6

CN(N=O)C(=O)N[C@@H](C=O)[C@@H](O)[C@H](O)[C@H](O)CO
survivor count (T/C endpoint: median survival time, dose: 160.0 mg/kg/injection, schedule: Q01DX009 (ip), vehicle: other, higher T/C = longer survival): 10 of 10
